The record followed here is the supplement of paper PMC9254222.

SMILES strings stand for the structures. Whole data set: some 1,100 compounds, median “Wnt reporter firefly/Renilla luciferase ratio relative to plate median” near 1.1, cut for the highest 2% near 1.6. The entries are a selection whose mix differs from that of the whole data set.

The test system of the assay is HEK293T (UBE3A T485A transfected, BAR Wnt reporter). As to the kind of experiment: Wnt reporter firefly/Renilla luciferase ratio relative to plate median (fold (linear ratio)); higher = more Wnt/beta-catenin reporter activation. As to conditions: 24 h. A digest of the protocol: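 HEK293T cells were seeded at 4500 cells/well in white 384-well plates and grown in DMEM with 10% FBS at 37°C and 5% CO2. The cells were transfected using Fugene 6 with a BAR firefly luciferase Wnt reporter, TK-Renilla and an expression plasmid, and four hours later robots added the chemicals at 0.01–100 uM for 24 h before a Dual-Glo luciferase readout. Wnt activity was taken as the firefly/Renilla ratio and cell health as raw Renilla, each median-centred per plate. Values are averages of four biological replicates.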

Consider `CCCCCCCCCCCCCCCCOS(=O)(=O)[O-].[Na+]` [Sodium hexyldecyl sulfate], for which, for the setting “concentration: 100 uM”, the “Wnt reporter firefly/Renilla luciferase ratio” value amounted to 1.7.
Turning to `COc1ccc(-n2nc(C(F)F)cc2-c2ccc(S(C)=O)cc2)cc1` (stereo not drawn), the “Wnt reporter firefly/Renilla luciferase ratio” value worked out at 0.843 (concentration: 0.1 uM), 0.844 (concentration: 1 uM), 1.07 (concentration: 10 uM) and 1.17 (concentration: 100 uM).
For the compound `Cc1nc(-c2ccc3c(c2)CCN(CCC2CCC(NC(=O)/C=C/c4ccc(F)cc4)CC2)CC3)no1.Cl` (stereo not drawn), the “Wnt reporter firefly/Renilla luciferase ratio” value is 1.22 (concentration: 0.1 uM), 0.948 (concentration: 1 uM), 0.916 (concentration: 10 uM) and 0.983 (concentration: 100 uM).
As to `CC(C)(C)c1ccc(O)c(C(C)(C)C)c1` [2,4-Di-tert-butylphenol], the “Wnt reporter firefly/Renilla luciferase ratio” value is, setting by setting: (concentration: 0.1 uM) 0.984; (concentration: 1 uM) 1.32; (concentration: 10 uM) 1.13; (concentration: 100 uM) 1.1.
For the compound `C=CCCCCCCCCC(=O)O` [10-Undecenoic acid], the “Wnt reporter firefly/Renilla luciferase ratio” value (concentration: 0.1 uM) is 1.01, the “Wnt reporter firefly/Renilla luciferase ratio” value (concentration: 1 uM) is 1.37, the “Wnt reporter firefly/Renilla luciferase ratio” value (concentration: 10 uM) is 1.04 and the “Wnt reporter firefly/Renilla luciferase ratio” value (concentration: 100 uM) amounted to 0.751.
Turning to `CC/C(=C(\c1ccccc1)c1ccc(OCCN(C)C)cc1)c1ccccc1.O=C(O)CC(O)(CC(=O)O)C(=O)O` [Tamoxifen citrate], the “Wnt reporter firefly/Renilla luciferase ratio” value by setting is: (concentration: 0.1 uM) 0.922; (concentration: 1 uM) 0.964; (concentration: 10 uM) 0.891; (concentration: 100 uM) 1.01.
As for `OC[C@H]1O[C@@H]2O[C@H]3[C@H](O)[C@@H](O)[C@@H](O[C@H]4[C@H](O)[C@@H](O)[C@@H](O[C@H]5[C@H](O)[C@@H](O)[C@@H](O[C@H]6[C@H](O)[C@@H](O)[C@@H](O[C@H]7[C@H](O)[C@@H](O)[C@@H](O[C@H]1[C@H](O)[C@H]2O)O[C@@H]7CO)O[C@@H]6CO)O[C@@H]5CO)O[C@@H]4CO)O[C@@H]3CO` [alpha-Cyclodextrin], the “Wnt reporter firefly/Renilla luciferase ratio” value stood at 1.02 (concentration: 0.1 uM), 1.09 (concentration: 1 uM), 0.976 (concentration: 10 uM) and 0.971 (concentration: 100 uM).
`CC1=C(/C=C/C(C)=C/C=C/C(C)=C/CO)C(C)(C)CCC1` [Retinol]: the “Wnt reporter firefly/Renilla luciferase ratio” value was 0.805 (concentration: 0.1 uM), 0.782 (concentration: 1 uM), 1 (concentration: 10 uM) and 0.6 (concentration: 100 uM).
The like results for `O=C(N[C@@H](Cc1ccccc1)[C@@H](O)C(=O)N1C[C@@H](O)[C@@H](O)C1)c1cc2cc(Cl)ccc2[nH]1` [Ingliforib] were, in that order, 1.29, 1.69, 0.888 and 0.353.
For `S=C([S-])NCCNC(=S)[S-].[Mn+2]` [Maneb], the “Wnt reporter firefly/Renilla luciferase ratio” value (concentration: 0.01 uM) turned out to be 1.04; the “Wnt reporter firefly/Renilla luciferase ratio” value (concentration: 0.1 uM) turned out to be 1.01; the “Wnt reporter firefly/Renilla luciferase ratio” value (concentration: 1 uM) came to 0.993; the “Wnt reporter firefly/Renilla luciferase ratio” value (concentration: 10 uM) was 1.27; the “Wnt reporter firefly/Renilla luciferase ratio” value (concentration: 100 uM) is 0.987.
Turning to `CCCCCCCCCCCCCCC` [Pentadecane], the “Wnt reporter firefly/Renilla luciferase ratio” value by setting is: (concentration: 0.1 uM) 1.42; (concentration: 1 uM) 1.06; (concentration: 10 uM) 1.41; (concentration: 100 uM) 1.36.
For the compound `Cc1cn([C@H]2C=C[C@@H](CO)O2)c(=O)[nH]c1=O` [Stavudine], the “Wnt reporter firefly/Renilla luciferase ratio” value was 1.03 (concentration: 0.1 uM), 1.04 (concentration: 1 uM), 0.931 (concentration: 10 uM) and 1.62 (concentration: 100 uM).
Consider `CCCCCCCCCCCCCCCCO` [1-Hexadecanol], for which the “Wnt reporter firefly/Renilla luciferase ratio” value by setting is: (concentration: 0.1 uM) 1.44; (concentration: 1 uM) 1.1; (concentration: 10 uM) 1.22; (concentration: 100 uM) 1.38.
Turning to `O=C1CN(N=Cc2ccc([N+](=O)[O-])o2)C(=O)N1` [Nitrofurantoin], the “Wnt reporter firefly/Renilla luciferase ratio” value is 1.09 (concentration: 0.1 uM), 0.833 (concentration: 1 uM), 0.499 (concentration: 10 uM) and 0.0548 (concentration: 100 uM).
Turning to `CCOCCOCCO` [2-(2-Ethoxyethoxy)ethanol], the “Wnt reporter firefly/Renilla luciferase ratio” value stood at 0.833 (concentration: 0.1 uM), 1.24 (concentration: 1 uM), 0.948 (concentration: 10 uM) and 1.26 (concentration: 100 uM).
